Values from PubChem BioAssay AID720505 (Drosophila RNAi Screening Center, 2013)

Assay: 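Genes needed for store-operated calcium entry in fly cells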 (primary screen)
System: Drosophila S2R+ cells
Reagent: long dsRNA against Drosophila genes
Conditions: thapsigargin (2 µM) in calcium-free buffer to empty internal stores, then 2 mM calcium added back
Detection: 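Fluo-4 signal in 384-well plates read on a FLIPR after thapsigargin (2 µM, calcium-free) store depletion and 2 mM calcium add-back; unnormalised mean endpoint per well; screen run twice, selected wells retested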
Scale: calcium signal: higher = more calcium entry after store depletion
Rule for the call: 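About 1500 genes called as lowering calcium entry, by varying amounts, judged against per-plate control wells with STIM1 as positive and Rho1 as negative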
Meaning of the calls: active = called as lowering calcium entry; inactive = not called
The screen tested about 20,000 reagents; this is an unselected part of those that have a named target and a result. Of all reagents, about 2,100 (10%) are marked active. 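Raw plate signals without normalisation; calls rest on control-based scores that were not deposited; replicate 2 separates called from uncalled poorly.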 Entries without a mark were called inactive. Reagents against one gene are numbered here. A plus sign joins genes that one reagent is predicted to hit. Reagent sequences are not shown. The record does not give: the amount of reagent, the time to read-out.

For CG42288 (GeneID 36559), the values are calcium signal, replicate 1 = 125; calcium signal, replicate 2 = 227.
For CG14034 (GeneID 33751), the entry reads calcium signal, replicate 1 = 64.4 (active); calcium signal, replicate 2 = 163.
Against Bka (GeneID 46032), the values are calcium signal, replicate 1 = 159; calcium signal, replicate 2 = 165.
CG11529 (GeneID 39395) showed calcium signal, replicate 1 = 79.8; calcium signal, replicate 2 = 87.3.
Against Vajk3 (GeneID 34812), the entry reads calcium signal, replicate 1 = 99.1; calcium signal, replicate 2 = 141.
Depletion of Nubp2 (GeneID 40282) came out at: calcium signal, replicate 1 = 115; calcium signal, replicate 2 = 153.
Knock-down of CG42299 + CG42300 #1 came out at: calcium signal, replicate 1 = 91.9; calcium signal, replicate 2 = 124.
After knock-down of CG42299 + CG42300 #2 the results were calcium signal, replicate 1 = 85.4; calcium signal, replicate 2 = 121.
Rpn2 (GeneID 43449) gave calcium signal, replicate 1 = 36.1 (active); calcium signal, replicate 2 = 60.7.
CG8891 (GeneID 33718) scored calcium signal, replicate 1 = 170; calcium signal, replicate 2 = 116.
After knock-down of CG30471 (GeneID 246633), the screen gave calcium signal, replicate 1 = 112; calcium signal, replicate 2 = 99.9.
CG11619 (GeneID 40072) showed calcium signal, replicate 1 = 62.4 (active); calcium signal, replicate 2 = 106.

Laid out differently: 2 of the entries above.
CG42299 + CG42300 #1
- calcium signal, replicate 1: 91.9
- calcium signal, replicate 2: 124

CG42299 + CG42300 #2
- calcium signal, replicate 1: 85.4
- calcium signal, replicate 2: 121
